The results in this text go back to article PMC6123728.

Protein sequences, listed by entry. Tags and fused reporters are not part of them.
UniProt P33242: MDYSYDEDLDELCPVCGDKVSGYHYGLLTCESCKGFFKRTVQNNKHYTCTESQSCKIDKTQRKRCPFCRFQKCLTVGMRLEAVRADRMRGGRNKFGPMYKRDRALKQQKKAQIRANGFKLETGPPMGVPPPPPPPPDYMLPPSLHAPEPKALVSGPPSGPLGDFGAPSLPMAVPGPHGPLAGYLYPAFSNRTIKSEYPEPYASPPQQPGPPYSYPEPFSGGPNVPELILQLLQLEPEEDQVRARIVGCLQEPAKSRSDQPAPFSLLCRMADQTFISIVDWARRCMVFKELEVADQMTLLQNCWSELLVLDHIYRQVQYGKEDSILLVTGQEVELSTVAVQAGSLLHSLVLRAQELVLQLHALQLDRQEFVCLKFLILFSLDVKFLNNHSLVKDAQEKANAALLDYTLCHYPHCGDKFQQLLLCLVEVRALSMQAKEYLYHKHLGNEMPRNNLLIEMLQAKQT

Assay [1] has as its target T1, FLAG-SREBP-2 (1-481) (UniProt Q12772).
T1 sequence: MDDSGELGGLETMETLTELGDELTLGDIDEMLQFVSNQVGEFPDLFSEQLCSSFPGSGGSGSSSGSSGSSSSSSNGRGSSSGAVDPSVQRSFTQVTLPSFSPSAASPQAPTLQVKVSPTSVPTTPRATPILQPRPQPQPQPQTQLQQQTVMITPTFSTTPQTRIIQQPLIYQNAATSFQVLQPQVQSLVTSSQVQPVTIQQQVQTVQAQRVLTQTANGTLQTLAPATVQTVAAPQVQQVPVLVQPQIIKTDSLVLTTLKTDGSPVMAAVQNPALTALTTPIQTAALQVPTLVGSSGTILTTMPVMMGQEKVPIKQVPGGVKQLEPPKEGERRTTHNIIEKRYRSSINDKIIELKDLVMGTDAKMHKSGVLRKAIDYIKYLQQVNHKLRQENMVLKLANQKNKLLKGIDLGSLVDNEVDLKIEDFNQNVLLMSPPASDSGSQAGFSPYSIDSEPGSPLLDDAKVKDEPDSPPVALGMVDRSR
The assay can be described thus: pull-down; purified FLAG-SREBP-2 (300 ng) incubated overnight at 4 °C with Y-1 nuclear extract in 1 ml binding buffer (50 mM HEPES-KOH pH 7.4, 150 mM NaCl, 1 mM EDTA, 0.1% NP-40); immunoprecipitated with anti-FLAG magnetic beads; washes with 150 and 300 mM NaCl; eluted with FLAG peptide; western blot for Ad4BP/SF-1, FLAG, CREB; only the target purified. Background: Immunoblotting shows a protein as a band on a membrane.

Assay [2] has as its target FLAG-Ad4BP/SF-1 (UniProt P33242). Nature of the assay: co-IP; in vitro binding assay: purified HA-SREBP-2 (1-481) (300 ng) and FLAG-Ad4BP/SF-1 (300 ng) incubated overnight at 4 °C in 1 ml binding buffer (50 mM HEPES-KOH pH 7.4, 150 mM NaCl, 1 mM EDTA, 0.1% NP-40); immunoprecipitated with anti-FLAG antibody; western blot with anti-HA or anti-FLAG; both ….

These are yes or no findings as the source states them, for the method shown. For some assays here: In cells and extracts the contact can be indirect. Some binding calls cover weakened binding; strength is not graded here. Tags and fused reporters may be left off the sequences shown.

Regarding “Ad4BP/SF-1 (NR5A1), endogenous in Y-1 cell nuclear extract (from UniProt P33242 1-462)”, the binding result in assay [1] was “binds”.

B1: HA-SREBP-2 (1-481) (domain or fragment, UniProt Q12772 1-481)
chain: T1 sequence
As to B1, the binding result in assay [2] was “binds”.
